Reference: patent publication US20260209339A1 (RADIANT BIOTHERAPEUTICS, published 2026)
No constants are given. Whether binding was seen depends on the method and setting. Some results given as binding are weak or reduced against the parent protein; the word gives no strength.

Protein sequences, listed by entry. Tags and fused reporters are not part of them. Residues count along the entry.
UniProt P05231, residues 30-212: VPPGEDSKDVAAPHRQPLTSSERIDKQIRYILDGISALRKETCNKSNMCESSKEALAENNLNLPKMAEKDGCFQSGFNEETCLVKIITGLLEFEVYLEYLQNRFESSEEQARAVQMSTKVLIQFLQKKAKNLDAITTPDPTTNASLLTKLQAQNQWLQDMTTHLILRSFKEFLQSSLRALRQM

Target: interleukin-6 (IL-6) (UniProt P05231)
Assay: ELISA

| binding | Binder |
| --- | --- |
| binds | clazakizumab IgG (antibody, V domains shown, Tested as parental IgG) VH: EVQLVESGGGLVQPGGSLRLSCAASGFSLSNYYVTWVRQAPGKGLEWVGIIYGSDETAYATSAIGRFTISRDNSKNTLYLQMNSLRAEDTAVYYCARDDSSDWDAKFNLWGQGTLVTVSS VL: AIQMTQSPSSLSASVGDRVTITCQASQSINNELSWYQQKPGKAPKLLIYRASTLASGVPSRFSGSGSGTDFTLTISSLQPDDFATYYCQQGYSLRNIDNAFGGGTKVEIKR |
| binds | olokizumab IgG (antibody, V domains shown, Tested as parental IgG; also called CDP6038) VH: EVQLVESGGGLVQPGGSLRLSCAASGFNFNDYFMNWVRQAPGKGLEWVAQMRNKNYQYGTYYAESLEGRFTISRDDSKNSLYLQMNSLKTEDTAVYYCARESYYGFTSYWGQGTLVTVSS VL: DIQMTQSPSSLSASVGDRVTITCQASQDIGISLSWYQQKPGKAPKLLIYNANNLADGVPSRFSGSGSGTDFTLTISSLQPEDFATYYCLQHNSAPYTFGQGTKLEIKR |
| binds | siltuximab immunoglobulin (IgG) (antibody, V domains shown, Tested as parental IgG; also called siltuximab IgG; CNTO-328) VH: EVQLVESGGKLLKPGGSLKLSCAASGFTFSSFAMSWFRQSPEKRLEWVAEISSGGSYTYYPDTVTGRFTISRDNAKNTLYLEMSSLRSEDTAMYYCARGLWGYYALDYWGQGTSVTVSS VL: QIVLIQSPAIMSASPGEKVTMTCSASSSVSYMYWYQQKPGSSPRLLIYDTSNLASGVPVRFSGSGSGTSYSLTISRMEAEDAATYYCQQWSGYPYTFGGGTKLEIKR |
